Source: the supplement of paper PMC10849652
This is one part of the list.

Amino acid sequences for entries named in this document (tags omitted). A change or cut given only in a name is not applied to a line headed by its entry.
UniProt Q9BWT6: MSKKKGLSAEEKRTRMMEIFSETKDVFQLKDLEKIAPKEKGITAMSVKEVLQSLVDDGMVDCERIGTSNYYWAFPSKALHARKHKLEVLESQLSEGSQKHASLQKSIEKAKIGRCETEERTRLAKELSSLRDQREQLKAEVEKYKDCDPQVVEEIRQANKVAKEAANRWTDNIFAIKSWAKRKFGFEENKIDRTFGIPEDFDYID
UniProt Q15014, whole entry, looked up: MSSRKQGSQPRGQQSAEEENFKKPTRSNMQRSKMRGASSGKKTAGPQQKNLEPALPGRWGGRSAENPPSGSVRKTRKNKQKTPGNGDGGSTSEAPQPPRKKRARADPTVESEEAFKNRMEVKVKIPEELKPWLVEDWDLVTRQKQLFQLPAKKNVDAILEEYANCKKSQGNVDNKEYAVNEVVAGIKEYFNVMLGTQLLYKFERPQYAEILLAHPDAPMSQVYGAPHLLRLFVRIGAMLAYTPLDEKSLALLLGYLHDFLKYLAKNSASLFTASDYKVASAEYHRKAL
UniProt Q8WV92, whole entry, looked up: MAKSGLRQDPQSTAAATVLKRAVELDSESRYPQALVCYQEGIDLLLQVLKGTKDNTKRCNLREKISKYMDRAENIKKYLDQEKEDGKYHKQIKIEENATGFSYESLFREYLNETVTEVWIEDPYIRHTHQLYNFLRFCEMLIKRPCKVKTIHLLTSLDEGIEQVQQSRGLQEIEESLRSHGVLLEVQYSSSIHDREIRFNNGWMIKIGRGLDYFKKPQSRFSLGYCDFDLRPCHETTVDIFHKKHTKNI
UniProt Q9BRT3: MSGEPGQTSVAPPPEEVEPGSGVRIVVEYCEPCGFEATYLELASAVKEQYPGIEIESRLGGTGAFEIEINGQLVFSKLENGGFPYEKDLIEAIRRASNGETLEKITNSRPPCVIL
UniProt O96007: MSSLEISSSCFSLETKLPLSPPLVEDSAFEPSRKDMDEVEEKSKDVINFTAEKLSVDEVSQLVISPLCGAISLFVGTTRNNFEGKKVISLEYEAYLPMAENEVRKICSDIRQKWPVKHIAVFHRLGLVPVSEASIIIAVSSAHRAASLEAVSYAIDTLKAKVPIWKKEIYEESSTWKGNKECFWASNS
UniProt Q9HC36: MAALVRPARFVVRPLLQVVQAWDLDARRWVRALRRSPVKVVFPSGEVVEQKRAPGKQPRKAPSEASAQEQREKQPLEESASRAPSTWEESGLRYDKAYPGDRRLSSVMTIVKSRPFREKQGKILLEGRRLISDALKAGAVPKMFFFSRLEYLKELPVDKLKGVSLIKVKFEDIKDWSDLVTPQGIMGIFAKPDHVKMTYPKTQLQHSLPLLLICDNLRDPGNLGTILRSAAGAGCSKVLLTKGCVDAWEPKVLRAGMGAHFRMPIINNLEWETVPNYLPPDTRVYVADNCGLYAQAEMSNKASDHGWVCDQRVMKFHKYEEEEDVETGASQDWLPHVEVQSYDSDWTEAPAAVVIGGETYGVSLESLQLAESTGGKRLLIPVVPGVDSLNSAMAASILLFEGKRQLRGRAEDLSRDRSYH
UniProt Q7RTP6, whole entry, looked up: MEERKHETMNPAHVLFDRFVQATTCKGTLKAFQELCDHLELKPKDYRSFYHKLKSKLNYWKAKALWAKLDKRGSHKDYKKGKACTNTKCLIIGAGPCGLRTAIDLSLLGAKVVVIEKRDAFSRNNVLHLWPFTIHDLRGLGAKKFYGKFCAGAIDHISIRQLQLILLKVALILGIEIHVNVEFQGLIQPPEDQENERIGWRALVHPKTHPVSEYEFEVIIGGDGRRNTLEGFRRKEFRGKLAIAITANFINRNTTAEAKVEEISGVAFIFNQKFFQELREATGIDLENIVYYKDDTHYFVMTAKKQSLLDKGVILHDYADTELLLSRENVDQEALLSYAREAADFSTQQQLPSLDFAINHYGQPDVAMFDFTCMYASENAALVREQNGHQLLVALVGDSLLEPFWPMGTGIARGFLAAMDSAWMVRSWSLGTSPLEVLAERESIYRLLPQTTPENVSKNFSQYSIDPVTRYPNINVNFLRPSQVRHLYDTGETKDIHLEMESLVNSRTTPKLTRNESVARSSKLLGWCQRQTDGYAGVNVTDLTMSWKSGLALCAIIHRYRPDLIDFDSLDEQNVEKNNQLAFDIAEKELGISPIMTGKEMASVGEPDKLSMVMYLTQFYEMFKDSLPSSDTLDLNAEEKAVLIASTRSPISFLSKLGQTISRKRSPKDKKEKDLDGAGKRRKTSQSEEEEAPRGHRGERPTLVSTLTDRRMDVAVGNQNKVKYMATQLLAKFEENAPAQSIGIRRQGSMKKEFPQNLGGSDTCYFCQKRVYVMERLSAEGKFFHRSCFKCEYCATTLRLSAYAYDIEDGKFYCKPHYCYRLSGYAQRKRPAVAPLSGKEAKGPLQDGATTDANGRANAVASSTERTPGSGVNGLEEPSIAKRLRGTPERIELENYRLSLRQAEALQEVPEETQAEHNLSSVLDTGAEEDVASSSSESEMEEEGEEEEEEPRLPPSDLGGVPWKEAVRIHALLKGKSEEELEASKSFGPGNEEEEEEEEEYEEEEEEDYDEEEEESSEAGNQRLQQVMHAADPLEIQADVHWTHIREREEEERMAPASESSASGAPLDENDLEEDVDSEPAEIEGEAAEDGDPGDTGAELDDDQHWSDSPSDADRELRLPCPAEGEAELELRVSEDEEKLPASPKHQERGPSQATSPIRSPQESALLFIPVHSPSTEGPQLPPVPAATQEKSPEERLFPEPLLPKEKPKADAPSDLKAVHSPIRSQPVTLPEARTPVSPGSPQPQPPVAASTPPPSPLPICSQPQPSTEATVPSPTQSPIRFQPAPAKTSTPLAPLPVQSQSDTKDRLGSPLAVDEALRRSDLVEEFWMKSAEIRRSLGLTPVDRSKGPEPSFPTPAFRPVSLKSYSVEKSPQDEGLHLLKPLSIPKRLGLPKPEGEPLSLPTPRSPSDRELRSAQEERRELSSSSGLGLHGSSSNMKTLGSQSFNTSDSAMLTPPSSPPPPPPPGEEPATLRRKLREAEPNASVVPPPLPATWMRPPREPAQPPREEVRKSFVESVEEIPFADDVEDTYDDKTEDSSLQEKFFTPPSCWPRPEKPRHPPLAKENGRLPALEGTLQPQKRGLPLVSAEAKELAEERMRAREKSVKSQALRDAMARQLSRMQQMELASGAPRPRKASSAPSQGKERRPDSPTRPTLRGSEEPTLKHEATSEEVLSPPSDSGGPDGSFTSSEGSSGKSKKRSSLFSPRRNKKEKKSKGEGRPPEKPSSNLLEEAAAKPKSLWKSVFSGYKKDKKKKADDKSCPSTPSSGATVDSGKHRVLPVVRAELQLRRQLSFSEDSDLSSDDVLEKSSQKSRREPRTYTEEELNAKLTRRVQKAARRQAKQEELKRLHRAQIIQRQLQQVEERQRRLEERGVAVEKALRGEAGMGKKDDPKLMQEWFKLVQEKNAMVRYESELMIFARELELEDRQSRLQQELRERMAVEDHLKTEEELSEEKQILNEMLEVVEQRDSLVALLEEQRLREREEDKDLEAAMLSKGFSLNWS

How the values were obtained:
Test in all cases: log2 fold change, soluble protein after heating vs DMSO (PISA); higher = thermal stabilisation; K562 cells, 10 uM, 30 min; active = over 0.2 and 3.5 SD of the protein, either way, in both replicates (recomputed)
[1] = compound: Cc1ccc(NC(=O)c2ccc(CN3CC[C@H](N(C)C)C3)c(C(F)(F)F)c2)cc1Nc1nccc(-c2cncnc2)n1 [bafetinib]
Procedure, shortened: (§1)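 K562 cells at 2×10^6 cells/mL were treated with 10 μM compound for 30 min. Aliquots were heated for 3 min across 48°C-58°C, pooled, and extracted in PBS with 0.5% NP-40 at 4°C; soluble protein was the supernatant after 21,000xg for 90 min. Soluble protein was quantified by TMTpro 16plex LC-MS/MS with channel sums equalised, and reported as log2 fold change in thermal stability against DMSO controls, with values from duplicates.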

[2] = compound: Cc1cccc(CC(=O)N2CCc3c2ccc(-c2cn(C)c4ncnc(N)c24)c3F)n1
Procedure, shortened: as §1

[3] = compound: Cc1cn(-c2cc(NC(=O)c3ccc(C)c(Nc4nccc(-c5cccnc5)n4)c3)cc(C(F)(F)F)c2)cn1 [nilotinib]
Procedure, shortened: as §1

[4] = compound: Cc1nc(Nc2n[nH]c3c2CN(C(=O)N[C@H](CN(C)C)c2ccccc2)C3(C)C)c2sccc2n1
Procedure, shortened: as §1

[5] = compound: Cc1nc(Nc2ncc(C(=O)Nc3c(C)cccc3Cl)s2)cc(N2CCN(CCO)CC2)n1 [dasatinib]
Procedure, shortened: as §1

[6] = compound: Cc1ncc(-c2ccnc(Nc3ccc(S(C)(=O)=O)cc3)n2)n1C(C)C
Procedure, shortened: as §1

[7] = compound: Cn1cc(-c2ccc3c(c2)CCN3C(=O)Cc2cccc(C(F)(F)F)c2)c2c(N)ncnc21
Procedure, shortened: as §1

[8] = compound: Cn1cc(-c2ccc3nnc(C(F)(F)c4ccc5ncccc5c4)n3n2)cn1
Procedure, shortened: as §1

[9] = compound: Cn1cncc1[C@@](N)(c1ccc(Cl)cc1)c1ccc2c(c1)c(-c1cccc(Cl)c1)cc(=O)n2C [tipifarnib]
Procedure, shortened: as §1

[10] = compound: FC(F)(F)c1ccc(/C=C/c2nc(COc3ccc(CCCCn4ccnn4)cc3)co2)cc1 [mubritinib]
Procedure, shortened: as §1

[11] = compound: NC(=O)Nc1cc(-c2cccc(F)c2)sc1C(=O)N[C@H]1CCCNC1
Procedure, shortened: as §1

[12] = compound: NC(=O)c1cnc(N[C@@H]2CCCC[C@@H]2N)nc1Nc1cccc(-n2nccn2)c1
Procedure, shortened: as §1

[13] = compound: NC1(c2ccc(-c3nc4ccn5c(=O)[nH]nc5c4cc3-c3ccccc3)cc2)CCC1
Procedure, shortened: as §1

[14] = compound: NCC(=O)Nc1ccc(-n2nc(C(F)(F)F)cc2-c2ccc3c(ccc4ccccc43)c2)cc1
Procedure, shortened: as §1

[15] = compound: Nc1ccccc1NC(=O)c1ccc(CNC(=O)OCc2cccnc2)cc1 [entinostat]
Procedure, shortened: as §1

[16] = compound: O=C(CCCCCCC(=O)Nc1ccccc1)NO [vorinostat]
Procedure, shortened: as §1

[17] = compound: O=C(CCCCCCNC(=O)c1cnc(N(c2ccccc2)c2ccccc2Cl)nc1)NO [citarinostat]
Procedure, shortened: as §1

[18] = compound: O=C(O)c1ccc2c(c1)nc(Nc1cccc(Cl)c1)c1ccncc12 [silmitasertib]
Procedure, shortened: as §1

[19] = compound: O=C1NC(=O)C(c2cnc3ccccn23)=C1c1cn2c3c(cc(F)cc13)CN(C(=O)N1CCCCC1)CC2
Procedure, shortened: as §1

[20] = compound: c1cc(OCCN2CCCCC2)cc(-c2n[nH]c3ccc(-c4nnc[nH]4)cc23)c1
Procedure, shortened: as §1

Measured: log2 fold change

MRPL40 (UniProt Q9NQ50)
inactive: [1] 0.167 | [2] -0.033 | [3] 0.017 | [4] 0.151 | [5] -0.003 | [6] -0.057 | [7] -0.075 | [8] -0.045 | [9] 0.169 | [10] 0.069 | [11] 0.071 | [12] -0.017 | [13] 0.041 | [14] 0.085 | [15] -0.043 | [16] -0.053 | [17] 0.04 | [18] -0.033 | [19] -0.02 | [20] -0.047

MRPL43 isoform 4 (UniProt Q8N983)
inactive: [1] 0.128 | [2] 0.067 | [3] -0.114 | [4] 0.108 | [5] 0.062 | [6] -0.112 | [7] -0.129 | [8] 0 | [9] 0.17 | [10] 0.001 | [11] -0.116 | [12] -0.026 | [13] 0.046 | [14] 0.143 | [15] 0.035 | [16] 0.021 | [17] -0.014 | [18] 0.004 | [19] 0.004 | [20] -0.041

MND1 (UniProt Q9BWT6)
inactive: [1] -0.168 | [2] 0.042 | [3] 0.032 | [4] 0.003 | [5] -0.037 | [6] -0.015 | [7] -0.056 | [8] -0.132 | [9] 0.04 | [10] 0.043 | [11] -0.024 | [12] -0.012 | [13] -0.118 | [14] -0.119 | [15] 0.041 | [16] -0.11 | [17] -0.033 | [18] -0.014 | [19] -0.042 | [20] -0.146

MRPL30 isoform 2 (UniProt Q8TCC3)
inactive: [1] 0.231 | [2] 0.143 | [3] -0.045 | [4] 0.105 | [5] -0.067 | [6] -0.038 | [7] -0.11 | [8] 0.003 | [9] 0.07 | [10] 0.047 | [11] 0.043 | [12] 0.034 | [13] 0.061 | [14] 0.077 | [15] -0.012 | [16] 0.021 | [17] 0.073 | [18] 0 | [19] 0.022 | [20] -0.068

MORF4L2 (UniProt Q15014)
inactive: [1] 0.026 | [2] -0.055 | [3] 0.009 | [4] 0.01 | [5] 0.045 | [6] -0.005 | [7] -0.087 | [8] -0.131 | [9] 0.059 | [10] -0.076 | [11] 0.021 | [12] 0.047 | [13] 0.123 | [14] 0.027 | [15] -0.066 | [16] 0.04 | [17] -0.044 | [18] 0.087 | [19] 0.04 | [20] -0.121

MITD1 (UniProt Q8WV92)
inactive: [1] -0.217 | [2] -0.006 | [3] -0.065 | [4] -0.035 | [5] 0.006 | [6] -0.101 | [7] 0.01 | [8] 0.009 | [9] 0.098 | [10] -0.108 | [11] 0.016 | [12] -0.018 | [13] -0.387 | [14] -0.059 | [15] -0.08 | [16] 0.057 | [17] -0.135 | [18] 0.14 | [19] -0.176 | [20] 0.228

MRPL2 (UniProt Q5T653)
inactive: [1] 0.182 | [2] 0.106 | [3] -0.189 | [4] 0.112 | [5] 0.023 | [6] 0.051 | [7] -0.099 | [8] -0.011 | [9] 0.075 | [10] 0.062 | [11] -0.026 | [12] 0.077 | [13] -0.001 | [14] -0.006 | [15] -0.036 | [16] 0.043 | [17] -0.001 | [18] -0.048 | [19] -0.081 | [20] -0.046

MRPL53 (UniProt Q96EL3)
inactive: [1] 0.192 | [2] 0.177 | [3] -0.032 | [4] 0.149 | [5] 0.078 | [6] -0.068 | [7] -0.058 | [8] 0.041 | [9] -0.019 | [10] 0.043 | [11] 0.017 | [12] -0.04 | [13] 0.076 | [14] 0.094 | [15] -0.118 | [16] -0.018 | [17] 0.01 | [18] 0.005 | [19] -0.093 | [20] -0.106

MIEN1 (UniProt Q9BRT3)
inactive: [1] 0.023 | [2] -0.013 | [3] -0.029 | [4] -0.037 | [5] -0.041 | [6] -0.08 | [7] 0.08 | [8] 0.139 | [9] 0.083 | [10] 0.018 | [11] 0.045 | [12] 0.003 | [13] -0.013 | [14] 0.001 | [15] 0.016 | [16] -0.042 | [17] -0.007 | [18] 0.004 | [19] -0.131 | [20] 0.057

MOCS2 (UniProt O96007)
inactive: [1] -0.065 | [2] -0.022 | [3] 0 | [4] 0.012 | [5] 0.039 | [6] 0.01 | [7] 0.035 | [8] 0.032 | [9] -0.038 | [10] -0.006 | [11] 0.041 | [12] -0.049 | [13] 0.008 | [14] -0.03 | [15] -0.011 | [16] 0.037 | [17] 0.05 | [18] -0.01 | [19] -0.048 | [20] 0.01

Pulled one by one from the entries so far (2):
MRPL53 (UniProt Q96EL3)
inactive: [1] 0.192 | [2] 0.177 | [3] -0.032 | [4] 0.149 | [5] 0.078 | [6] -0.068 | [7] -0.058 | [8] 0.041 | [9] -0.019 | [10] 0.043 | [11] 0.017 | [12] -0.04 | [13] 0.076 | [14] 0.094 | [15] -0.118 | [16] -0.018 | [17] 0.01 | [18] 0.005 | [19] -0.093 | [20] -0.106

MRPL2 (UniProt Q5T653)
inactive: [1] 0.182 | [2] 0.106 | [3] -0.189 | [4] 0.112 | [5] 0.023 | [6] 0.051 | [7] -0.099 | [8] -0.011 | [9] 0.075 | [10] 0.062 | [11] -0.026 | [12] 0.077 | [13] -0.001 | [14] -0.006 | [15] -0.036 | [16] 0.043 | [17] -0.001 | [18] -0.048 | [19] -0.081 | [20] -0.046

Next entries.

MRPL54 (UniProt Q6P161)
inactive: [1] -0.062 | [2] 0.065 | [3] 0.062 | [4] 0.082 | [5] 0.115 | [6] -0.089 | [7] -0.086 | [8] -0.019 | [9] 0.271 | [10] -0.053 | [11] 0 | [12] 0.005 | [13] -0.001 | [14] 0.053 | [15] -0.08 | [16] -0.062 | [17] -0.075 | [18] 0.019 | [19] 0.152 | [20] -0.102

MRPL22 (UniProt Q9NWU5)
inactive: [1] 0.115 | [2] 0.054 | [3] 0.068 | [4] 0.175 | [5] 0.005 | [6] 0.005 | [7] -0.091 | [8] 0.016 | [9] 0.144 | [10] 0.062 | [11] -0.012 | [12] 0.067 | [13] -0.077 | [14] 0.08 | [15] -0.029 | [16] 0.062 | [17] -0.037 | [18] 0.013 | [19] 0.073 | [20] -0.032

MRM3 (UniProt Q9HC36)
inactive: [1] 0.316 | [2] -0.018 | [3] 0.056 | [4] 0.159 | [5] 0.208 | [6] 0.019 | [7] -0.279 | [8] -0.055 | [9] 0.235 | [10] -0.306 | [11] 0.096 | [12] 0.032 | [13] 0.354 | [14] 0.118 | [15] -0.081 | [16] 0.004 | [17] -0.097 | [18] 0.151 | [19] 0.211 | [20] -0.161

MRPL27 (UniProt Q9P0M9)
inactive: [1] 0.216 | [2] 0.096 | [3] 0.06 | [4] 0.035 | [5] 0.027 | [6] -0.029 | [7] -0.252 | [8] -0.019 | [9] 0.215 | [10] -0.008 | [11] 0.003 | [12] 0.202 | [13] 0.057 | [14] 0.142 | [15] 0.029 | [16] -0.065 | [17] -0.022 | [18] -0.019 | [19] 0.206 | [20] -0.104

MICAL3 (UniProt Q7RTP6)
inactive: [1] -0.054 | [2] -0.077 | [3] 0.023 | [4] -0.061 | [5] -0.109 | [6] -0.011 | [7] 0.041 | [8] 0.079 | [9] 0.075 | [10] 0.121 | [11] -0.1 | [12] -0.092 | [13] -0.087 | [14] -0.058 | [15] 0.005 | [16] 0.009 | [17] 0.037 | [18] 0.011 | [19] -0.012 | [20] -0.04

MRPL20 (UniProt Q9BYC9)
inactive: [1] 0.135 | [2] 0.105 | [3] -0.022 | [4] 0.172 | [5] -0.071 | [6] -0.007 | [7] -0.074 | [8] -0.041 | [9] 0.074 | [10] 0.025 | [11] -0.005 | [12] 0.061 | [13] 0.046 | [14] 0.115 | [15] -0.011 | [16] 0.011 | [17] -0.017 | [18] 0.003 | [19] -0.023 | [20] -0.075
